Laboratory results as given in PMC3037350.
Results are given in words; binding and its absence hold for the method and conditions named. For some assays here: In cells and extracts the contact can be indirect. Some results given as binding are weak or reduced against the parent protein; the word gives no strength. For some assays here: Tags and fused reporters may be left off the sequences shown.

Amino acid sequences for entries named in this document (tags omitted). Residues count along the entry.
UniProt B6KAM0, residues 67-569: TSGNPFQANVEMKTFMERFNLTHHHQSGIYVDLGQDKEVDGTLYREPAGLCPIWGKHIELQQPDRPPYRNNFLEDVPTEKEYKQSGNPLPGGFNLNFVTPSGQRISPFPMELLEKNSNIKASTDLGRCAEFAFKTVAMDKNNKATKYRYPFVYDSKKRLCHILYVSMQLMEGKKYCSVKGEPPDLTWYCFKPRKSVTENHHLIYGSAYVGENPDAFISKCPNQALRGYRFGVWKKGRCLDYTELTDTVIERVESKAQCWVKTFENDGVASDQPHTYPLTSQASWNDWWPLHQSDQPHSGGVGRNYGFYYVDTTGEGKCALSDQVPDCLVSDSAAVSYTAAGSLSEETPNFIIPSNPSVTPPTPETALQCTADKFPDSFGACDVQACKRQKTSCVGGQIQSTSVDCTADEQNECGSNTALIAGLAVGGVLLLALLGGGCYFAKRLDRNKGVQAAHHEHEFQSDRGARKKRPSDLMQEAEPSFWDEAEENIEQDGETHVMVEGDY

B1: TgRON2-2 (GST-fused recombinant fragment of T. gondii RON2, V1295 to P1359) (domain or fragment, UniProt B6KV60 1295-1359)
chain: VADIVQHMEDIGGAPPVSCVTNEILGVTCAPQAIAKATTSAARVATQDFLKVGLFAGMAPYLMLP

Tests used:
[1] = molecular target: native TgRON2 of T. gondii tachyzoites (T. gondii (endogenous in tachyzoites)) (UniProt B6KV60); assay: co-IP; tachyzoite extract after 0.6% SDS lysis and Triton X100 renaturation; immunosorption with rabbit anti-RON2-1; AMA1 detected with MAb CL22
[2] = molecular target: native TgAMA1 of T. gondii tachyzoites (T. gondii (endogenous in tachyzoites)) (UniProt B6KAM0); assay: far-Western, overlay or dot blot; tachyzoite lysate in non-reducing SDS sample buffer separated on 10% gel and transferred to nitrocellulose; membrane incubated with GST or TgRON2-2 at 100 µg/ml in PBS for 2 h; revealed with rat anti-GST; only the binder purified

| Molecule | binding [1] | binding [2] |
| --- | --- | --- |
| native TgAMA1 of T. gondii tachyzoites (from UniProt B6KAM0 67-569) | binds |  |
| B1 |  | binds |
